PMC5764988
No constants are given. Whether binding was seen depends on the method and setting.

By UniProt entry, the sequences of proteins in these tests, tags left out. Residues count along the entry.
UniProt Q9HVT2, residues 38-1516: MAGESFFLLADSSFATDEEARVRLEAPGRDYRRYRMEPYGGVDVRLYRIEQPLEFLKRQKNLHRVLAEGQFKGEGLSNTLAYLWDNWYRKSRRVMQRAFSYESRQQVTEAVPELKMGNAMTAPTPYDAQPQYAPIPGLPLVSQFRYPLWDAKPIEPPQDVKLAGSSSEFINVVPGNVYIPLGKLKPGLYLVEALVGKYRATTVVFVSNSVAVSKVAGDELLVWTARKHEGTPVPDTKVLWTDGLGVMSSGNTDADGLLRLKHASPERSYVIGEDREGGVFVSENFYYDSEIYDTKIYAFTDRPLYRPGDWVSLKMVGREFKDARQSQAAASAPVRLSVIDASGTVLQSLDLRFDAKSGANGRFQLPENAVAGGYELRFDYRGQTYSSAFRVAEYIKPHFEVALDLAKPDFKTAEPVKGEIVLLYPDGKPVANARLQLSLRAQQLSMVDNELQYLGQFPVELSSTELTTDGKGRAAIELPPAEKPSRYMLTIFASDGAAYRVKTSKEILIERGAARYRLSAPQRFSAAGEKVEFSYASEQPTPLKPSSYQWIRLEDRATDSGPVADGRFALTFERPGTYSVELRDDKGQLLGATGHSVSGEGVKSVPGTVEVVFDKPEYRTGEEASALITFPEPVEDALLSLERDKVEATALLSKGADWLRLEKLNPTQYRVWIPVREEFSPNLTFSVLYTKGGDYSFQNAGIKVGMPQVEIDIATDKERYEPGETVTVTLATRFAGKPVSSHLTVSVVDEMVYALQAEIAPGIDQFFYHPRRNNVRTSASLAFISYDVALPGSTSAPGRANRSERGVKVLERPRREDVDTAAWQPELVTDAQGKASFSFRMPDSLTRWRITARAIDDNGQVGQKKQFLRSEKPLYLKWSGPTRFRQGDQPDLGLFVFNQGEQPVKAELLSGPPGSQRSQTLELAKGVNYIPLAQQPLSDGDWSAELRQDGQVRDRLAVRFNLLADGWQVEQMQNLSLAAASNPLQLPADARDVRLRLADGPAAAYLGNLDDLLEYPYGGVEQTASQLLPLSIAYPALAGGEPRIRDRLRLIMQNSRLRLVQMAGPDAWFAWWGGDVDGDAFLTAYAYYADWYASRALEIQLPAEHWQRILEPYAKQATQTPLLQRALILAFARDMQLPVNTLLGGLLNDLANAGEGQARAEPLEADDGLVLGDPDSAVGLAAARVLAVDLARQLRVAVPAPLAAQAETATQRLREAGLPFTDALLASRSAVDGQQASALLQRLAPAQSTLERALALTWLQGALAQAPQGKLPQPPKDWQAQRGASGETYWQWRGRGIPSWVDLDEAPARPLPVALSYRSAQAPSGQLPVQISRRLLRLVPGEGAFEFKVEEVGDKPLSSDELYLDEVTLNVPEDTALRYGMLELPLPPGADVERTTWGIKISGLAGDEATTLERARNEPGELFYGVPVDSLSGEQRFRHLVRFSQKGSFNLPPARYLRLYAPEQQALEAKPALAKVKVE
UniProt Q9HVT1, residues 22-212: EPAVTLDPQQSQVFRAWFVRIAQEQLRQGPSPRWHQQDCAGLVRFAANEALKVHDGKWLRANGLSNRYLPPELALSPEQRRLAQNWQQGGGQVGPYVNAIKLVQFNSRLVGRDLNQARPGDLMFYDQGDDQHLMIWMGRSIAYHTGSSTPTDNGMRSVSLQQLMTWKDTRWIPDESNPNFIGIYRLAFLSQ

Biological target: MagD, the Type II alpha-2-macroglobulin from Pseudomonas aeruginosa (Pseudomonas aeruginosa) (UniProt Q9HVT2)
Test: SEC; MagD co-expressed with one other Mag protein in E. coli BL21 Star; co-purification by Ni-NTA and gel filtration (Superdex S200, 25 mM HEPES pH 7.5, 100 mM NaCl, 4 °C); both chains His6-tagged

Substance: MagC (from UniProt Q9HVT1 22-212)
- binding: no binding
